# This is one part of the list.
# Legend:
# Experiment in all cases: glycan array binding signal (z-score within array); higher = stronger binding
# Settings in all cases: glycan notation: IUPAC condensed, linker removed
# [1] = target: Man(a1-3)[Man(a1-6)]Man(a1-6)[Man(a1-3)]Man
# Summary of the method: (§1)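 Glycan array data came from 3228 arrays in the Consortium for Functional Glycomics database, and only arrays with an available protein sequence were kept. Glycan names were put into IUPAC-condensed notation, and columns mapping to the same glycan were averaged. The binding signal is a within-array Z-score, averaged across arrays of one protein sequence run at different concentrations or buffers and across linkers. A negative Z-score can be read as non-binding.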
# [2] = target: Man(a1-3)[Man(a1-6)]Man(a1-6)[Man(a1-3)]Man(b1-4)GlcNAc(b1-4)GlcNAc
# Summary of the method: as §1
# [3] = target: Man(a1-3)[Man(a1-6)]Man(b1-4)GlcNAc(b1-4)GlcNAc
# Summary of the method: as §1
# [4] = target: Man(a1-3)[Man(a1-6)]Man(b1-4)GlcNAc(b1-4)[Fuc(a1-6)]GlcNAc
# Summary of the method: as §1
# Man(a1-6)Man = target: Man(a1-6)Man
# Summary of the method: as §1
# Man(b1-4)GlcNAc = target: Man(b1-4)GlcNAc
# Summary of the method: as §1
# MurNAc(b1-4)GlcNAc = target: MurNAc(b1-4)GlcNAc
# Summary of the method: as §1
# Neu5Ac(a2-3)Gal = target: Neu5Ac(a2-3)Gal
# Summary of the method: as §1
# [5] = target: Neu5Ac(a2-3)Gal(b1-3)GalNAc
# Summary of the method: as §1
# [6] = target: Neu5Ac(a2-3)Gal(b1-3)GalNAc(b1-3)Gal(a1-4)Gal(b1-4)Glc
# Summary of the method: as §1
# [7] = target: Neu5Ac(a2-3)Gal(b1-3)GalNAc(b1-4)[Neu5Ac(a2-3)]Gal(b1-4)Glc
# Summary of the method: as §1
# [8] = target: Neu5Ac(a2-3)Gal(b1-3)GalNAc(b1-4)[Neu5Ac(a2-8)Neu5Ac(a2-3)]Gal(b1-4)Glc
# Summary of the method: as §1
# [9] = target: Neu5Ac(a2-3)Gal(b1-3)GalNAc6S
# Summary of the method: as §1
# [10] = target: Neu5Ac(a2-3)Gal(b1-3)GlcNAc
# Summary of the method: as §1
# [11] = target: Neu5Ac(a2-3)Gal(b1-3)GlcNAc(b1-2)Man
# Summary of the method: as §1
# [12] = target: Neu5Ac(a2-3)Gal(b1-3)GlcNAc(b1-2)Man(a1-3)[GlcNAc(b1-4)][Neu5Ac(a2-3)Gal(b1-3)GlcNAc(b1-2)Man(a1-6)]Man(b1-4)GlcNAc(b1-4)GlcNAc
# Summary of the method: as §1
# [13] = target: Neu5Ac(a2-3)Gal(b1-3)GlcNAc(b1-2)Man(a1-3)[Neu5Ac(a2-3)Gal(b1-3)GlcNAc(b1-2)Man(a1-6)]Man(b1-4)GlcNAc(b1-4)GlcNAc
# Summary of the method: as §1
# [14] = target: Neu5Ac(a2-3)Gal(b1-3)GlcNAc(b1-3)Gal(b1-3)GlcNAc
# Summary of the method: as §1
# [15] = target: Neu5Ac(a2-3)Gal(b1-3)GlcNAc(b1-3)Gal(b1-4)GlcNAc
# Summary of the method: as §1
# [16] = target: Neu5Ac(a2-3)Gal(b1-3)GlcNAc(b1-3)GalNAc
# Summary of the method: as §1
# [17] = target: Neu5Ac(a2-3)Gal(b1-3)GlcNAc(b1-4)Gal(b1-4)Glc
# Summary of the method: as §1
# [18] = target: Neu5Ac(a2-3)Gal(b1-3)GlcNAc(b1-6)GalNAc
# Summary of the method: as §1
# [19] = target: Neu5Ac(a2-3)Gal(b1-3)GlcNAc6S
# Summary of the method: as §1
# [20] = target: Neu5Ac(a2-3)Gal(b1-3)[Fuc(a1-4)]GlcNAc
# Summary of the method: as §1
# [21] = target: Neu5Ac(a2-3)Gal(b1-3)[Fuc(a1-4)]GlcNAc(b1-3)Gal(b1-3)[Fuc(a1-4)]GlcNAc
# Summary of the method: as §1
# [22] = target: Neu5Ac(a2-3)Gal(b1-3)[Fuc(a1-4)]GlcNAc(b1-3)Gal(b1-4)[Fuc(a1-3)]GlcNAc
# Summary of the method: as §1
# [23] = target: Neu5Ac(a2-3)Gal(b1-3)[GlcNAc(b1-6)]GalNAc
# Summary of the method: as §1
# [24] = target: Neu5Ac(a2-3)Gal(b1-3)[Neu5Ac(a2-6)]GalNAc
# Summary of the method: as §1
# [25] = target: Neu5Ac(a2-3)Gal(b1-3)[Neu5Ac(a2-6)]GlcNAc(b1-3)[Fuc(a1-3)[Gal(b1-4)]GlcNAc(b1-6)]Gal(b1-4)Glc
# Summary of the method: as §1
# [26] = target: Neu5Ac(a2-3)Gal(b1-3)]Neu5Ac(a2-3)Gal(b1-4)]GlcNAc
# Summary of the method: as §1
# Neu5Ac(a2-3)Gal(b1-4)Glc = target: Neu5Ac(a2-3)Gal(b1-4)Glc
# Summary of the method: as §1
# [27] = target: Neu5Ac(a2-3)Gal(b1-4)GlcNAc
# Summary of the method: as §1
# [28] = target: Neu5Ac(a2-3)Gal(b1-4)GlcNAc(b1-2)Man
# Summary of the method: as §1
# [29] = target: Neu5Ac(a2-3)Gal(b1-4)GlcNAc(b1-2)Man(a1-3)[GlcNAc(b1-4)][Neu5Ac(a2-3)Gal(b1-4)GlcNAc(b1-2)Man(a1-6)]Man(b1-4)GlcNAc(b1-4)GlcNAc
# Summary of the method: as §1
# [30] = target: Neu5Ac(a2-3)Gal(b1-4)GlcNAc(b1-2)Man(a1-3)[Neu5Ac(a2-3)Gal(b1-4)GlcNAc(b1-2)Man(a1-6)]Man(b1-4)GlcNAc(b1-4)GlcNAc
# Summary of the method: as §1
# [31] = target: Neu5Ac(a2-3)Gal(b1-4)GlcNAc(b1-2)Man(a1-3)[Neu5Ac(a2-3)Gal(b1-4)GlcNAc(b1-2)Man(a1-6)]Man(b1-4)GlcNAc(b1-4)[Fuc(a1-6)]GlcNAc
# Summary of the method: as §1
# [32] = target: Neu5Ac(a2-3)Gal(b1-4)GlcNAc(b1-2)Man(a1-3)[Neu5Ac(a2-6)Gal(b1-4)GlcNAc(b1-2)Man(a1-6)]Man(b1-4)GlcNAc(b1-4)GlcNAc
# Summary of the method: as §1
# [33] = target: Neu5Ac(a2-3)Gal(b1-4)GlcNAc(b1-2)[Neu5Ac(a2-3)Gal(b1-4)GlcNAc(b1-4)]Man(a1-3)[GlcNAc(b1-4)][Neu5Ac(a2-3)Gal(b1-4)GlcNAc(b1-2)[Neu5Ac(a2-3)Gal(b1-4)GlcNAc(b1-6)]Man(a1-6)]Man(b1-4)GlcNAc(b1-4)GlcNAc
# Summary of the method: as §1
binder,measurement,setting,value
TAL6-4LysM (Trichoderma atroviride) (protein) AADSIPSISPTGIITPTPTQSGMVSNCNKFYDVHSNDGCSAIASSQHVDLSSLYKWNPAIKTDCSGLQASVYVCIGILTTSMSTTSKLPTTTSKPSTTSKPPTGITTPTPTQSGMVKNCNKFYDVHSGDGCSAIASSQKVNLSSFYLWNPAVKTDCSGLQASVFVCIGTLTTSMSTTTSKLPTTTSKPSTTSKPPTGIITPTPTQNGMVKNCNKFYDVHSGDGCSAIASSQKVNLSSFYLWNPAVKTDCSGLQASVFVCVGTATTTTAAGITTPTPTQSGMVSGCNKFYDVHAGDGCSAIASSQKIALSSLYKWNPAVKTDCSGLQASVYICIGVGNAAAARVTGALEQKLISEEDLNSAVDHHHHHH,glycan array binding signal (z-score),[1],-0.512
same,glycan array binding signal (z-score),[2],-0.007
same,glycan array binding signal (z-score),[3],-0.369
same,glycan array binding signal (z-score),[4],0.616
same,glycan array binding signal (z-score),Man(a1-6)Man,-1.37
same,glycan array binding signal (z-score),Man(b1-4)GlcNAc,0.015
same,glycan array binding signal (z-score),MurNAc(b1-4)GlcNAc,-0.836
same,glycan array binding signal (z-score),Neu5Ac(a2-3)Gal,-0.938
same,glycan array binding signal (z-score),[5],-0.87
same,glycan array binding signal (z-score),[6],1.55
same,glycan array binding signal (z-score),[7],0.854
same,glycan array binding signal (z-score),[8],0.392
same,glycan array binding signal (z-score),[9],0.743
same,glycan array binding signal (z-score),[10],0.416
same,glycan array binding signal (z-score),[11],-0.188
same,glycan array binding signal (z-score),[12],-0.323
same,glycan array binding signal (z-score),[13],0.679
same,glycan array binding signal (z-score),[14],-0.899
same,glycan array binding signal (z-score),[15],-0.568
same,glycan array binding signal (z-score),[16],0.526
same,glycan array binding signal (z-score),[17],-0.389
same,glycan array binding signal (z-score),[18],-0.944
same,glycan array binding signal (z-score),[19],-0.022
same,glycan array binding signal (z-score),[20],-1.09
same,glycan array binding signal (z-score),[21],1.41
same,glycan array binding signal (z-score),[22],1.65
same,glycan array binding signal (z-score),[23],-0.436
same,glycan array binding signal (z-score),[24],0.082
same,glycan array binding signal (z-score),[25],-1.22
same,glycan array binding signal (z-score),[26],0.719
same,glycan array binding signal (z-score),Neu5Ac(a2-3)Gal(b1-4)Glc,1.22
same,glycan array binding signal (z-score),[27],-0.436
same,glycan array binding signal (z-score),[28],-0.663
same,glycan array binding signal (z-score),[29],-0.429
same,glycan array binding signal (z-score),[30],0.201
same,glycan array binding signal (z-score),[31],-0.509
same,glycan array binding signal (z-score),[32],-0.107
same,glycan array binding signal (z-score),[33],-1.17

# Nothing new here: entries from further up.
binder,measurement,setting,value
TAL6-4LysM (Trichoderma atroviride) (protein) AADSIPSISPTGIITPTPTQSGMVSNCNKFYDVHSNDGCSAIASSQHVDLSSLYKWNPAIKTDCSGLQASVYVCIGILTTSMSTTSKLPTTTSKPSTTSKPPTGITTPTPTQSGMVKNCNKFYDVHSGDGCSAIASSQKVNLSSFYLWNPAVKTDCSGLQASVFVCIGTLTTSMSTTTSKLPTTTSKPSTTSKPPTGIITPTPTQNGMVKNCNKFYDVHSGDGCSAIASSQKVNLSSFYLWNPAVKTDCSGLQASVFVCVGTATTTTAAGITTPTPTQSGMVSGCNKFYDVHAGDGCSAIASSQKIALSSLYKWNPAVKTDCSGLQASVYICIGVGNAAAARVTGALEQKLISEEDLNSAVDHHHHHH,glycan array binding signal (z-score),[14],-0.899
same,glycan array binding signal (z-score),[15],-0.568
same,glycan array binding signal (z-score),[16],0.526

# From the supplement of paper PMC8728848
